Source: patent publication US10508147B2, “Anti-nodal antibodies and methods of using same” (ANN AND ROBERT H. LURIE CHILDREN'S HOSPITAL OF CHICAGO, priority 2014, dated 2019)

System: 3D1 mAb
Test: ELISA epitope mapping and specificity assay of coated peptides probed with 3D1
Assay type: binding, mouse
Conditions: epitope mapping by ELISA and SPR
Protocol: Residues underlying the binding between 3D1 and Nodal were investigated by epitope mapping using a set of Nodal synthetic peptides (See FIG. 9). […] Peptides were immobilized at 1 μg/mL and probed with 3D1 at […]. Data were normalized to the binding of the peptide hNODAL (44-69) wild-type (WT). […] Most interactions were established with C43, P46, V47, E49, E50. The effect of Y58 can be on the conformation of the peptide.
Peptides used for the epitope mapping and for the specificity assay of the 3D1 mAb were coated at 1.0 μg/mL diluted in PBS; 3D1 mAb, dissolved in PBS, was used as primary antibody at 1.0 μg/mL.

3D1: mouse monoclonal anti-Nodal antibody raised against hNodal(44-67); light chain SEQ ID NO:1, heavy chains SEQ ID NO:2 and 3
epitope region of Nodal recognized: residues encompassing the 43-56 region
epitope region of Nodal recognized (listed as 3D1 mAb): region (44-56) contains the epitope
